The data set is described as follows: general procedure: solution-phase peptide synthesis; EDC.HCl, HOBt hydrate, DIPEA.

Several values for one entry are separate records, joined by “and”; a condition that tells them apart may be missing. Equal values may be shown once. * marks the point of attachment. Trt = c1ccc(C(c2ccccc2)(c2ccccc2)*)cc1; Fmoc = O=C(OCC1c2ccccc2-c2ccccc21)*; OtBu = CC(C)(C)O*; For = O=C*

We go through four substances from patent US12129277 (dated 2024).

For the substance Fmoc-D(OtBu)GC(Trt)E(OtBu)L-OtBu, the step yield entry reads like this: (coupling step) “about 25%”; (coupling step, of theory) 58.1% and 75.4%.

As for Fmoc-MD(OtBu)GC(Trt)E(OtBu)L-OtBu, for the setting “coupling step”, the “final purity (method not given)” value is 95.4% and 94.1%; the step yield was 78% and 83%.

Consider For-MD(OtBu)GC(Trt)E(OtBu)L-OtBu, for which the difficulty met result (coupling step) is “found to lead to partial epimerization in the final product”. Further, where the note is “late stage modification step”, the “purity (crude or final not stated)” value is 67.5-77.2% and 88.8%; the step yield is 75-83% and 67%.

With For-MDGCEL-OH, the “final purity (method not given)” value (late stage modification step) worked out at 98.3%.
